The whole screen tested about 52,000 sequences, of which about 210 (0.4%) were called active.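 Rule for the calls: active = gene whose silencing raises cell survival under the drug, median off-target-corrected z-score across its silencing RNAs 2 or more; inactive = the rest.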 This is one part of the list.

The nature of the test: Resistance to Poly (ADP-Ribose) Polymerase inhibitor: Gene Identification via Genome-wide siRNA Screen. Particulars: mouse BRCA2 R2336H ES cells, olaparib, CellTiter-Glo viability; hits give high values. In a few lines: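 Genome-wide siRNA screen (3 siRNAs/gene, 20 nM) in mouse ES cells carrying hypomorphic BRCA2 R2336H; olaparib 500 nM added 48 h post-transfection, CellTiter-Glo viability 72 h later. Normalized to plate-median negative control; MAD z-scores, gene median, seed-adjusted.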
On the technique in general: Cellular ATP, detected with luciferase, serves as a proxy for viable cell number.
GGAUCAAGAAUCCAAGGUUTT against Nek6: the z-score was inactive: 0.285.
The value for GCAAAGUUCACCUAAUUGGTT against Lipc was inactive: 0.593; that for GGGACCAGAACAAAGUGGUTT against Olfr487 was inactive: -0.257; that for GGAUGGCAGACAUUAUGUCTT against Nek1 was inactive: 0.811.
The figure for CGGCUAAGGAAAAAUGUGATT against Nr1h4 is inactive: -0.308; for GCCCAUAAUAAGGAUCCUATT against Tmem34 it is inactive: 0.857; for GGAGUAUCGUUUAUUCAUUTT against Slc2a2 it is inactive: 0.00539.
The value for “GGCACGAGUUUGACAGUGCTT against 1110007F12Rik” was inactive: -0.855.
Turning to GCGGUUUCUUACCAAUAACTT against Cyp1a2, the z-score is inactive: 1.48.
The figure for CGCGCUAAAGGAGAAGUUUTT against Wnt4 is inactive: -0.789; for GGGUCAAGACAAAUCUUCCTT against Snx3 it is inactive: 0.0442.
The figure for GGCCAUCAGAUAGUUUAAUTT against AW551984 is inactive: -0.3.
The value for GGGUAGUAGCCUUCUUAUCTT against Olfr1168 was inactive: 0.933; that for CGUGAUGUGGUAUUGGAACTT against Ampd2 was inactive: 0.214.
As for “GGCCCUUGAUAACUUUUCCTT against 1810037K07Rik”, the z-score was inactive: -0.499.
As to GAACUUCUUCUGGAAAACCTT against Cort, the z-score was inactive: 0.558.
For CCAAUUGUGAAGAUGUUUGTT against Eif3s6, the z-score was inactive: -1.9.
The value for GGCACUGUUGUGGCUGAAATT against Coro1a was inactive: 1.21; that for GGAGACAAGAACUACAUUATT against Actn3 was inactive: -0.825; that for GGUCAGAAGAGAUGCCAAUTT against Gpr81 was inactive: 1.71.
The figure for GACACUGUCAAAUUAUGGATT against V1rg5 is inactive: -0.297; for GCCGAGCUCAUCAUCAUGATT against Tesp2 it is inactive: 2.42.
The figure for GGAACAGUCCUACUGAUAUTT against Cdkn1a is inactive: -0.196; for GCAUAGUCUUGUUAACCAGTT against Poldip3 it is inactive: 1.36.
On to GGACAUGAAAGAUGCAAUUTT against Olfr421, for which the z-score is inactive: -0.5.
As for GCCUUUUCAAUCCUAUGUUTT against Olfr441, the z-score was inactive: -1.44.
GGGAUUUUCUGUGUAUCUUTT against D5Ertd33e: the z-score is inactive: -0.0623.
The figure for GCAGGCAUCAUUACAAAAATT against BC003262 is inactive: -0.0363.
The value for “GCAACCUUUUUACAACACCTT against 8430426H19Rik” was inactive: 1.12; that for GGUUUUAACAUGAGCAGCCTT against Ofcc1 was inactive: 0.224; that for GGAGAUCAGUUAACCCUACTT against Crisp2 was inactive: -0.0974.
The figure for GGAAGGUCUAGUUGAUUGUTT against Klrb1a is inactive: -0.118; for GGACAACAUUAUAGGAAAGTT against Neu3 it is inactive: 2.46; for GGACCAUGGCAUUAAACUGTT against Edg1 it is inactive: 0.167.
Take GGCAUCAAGUGACUUAUAATT against BC023179: the z-score was inactive: -1.5.
On to GCUUUGAGCAGCUAGGUUATT against Tpcn2, for which the z-score was inactive: 0.236.
The figure for GGUGAUGCAGAAAGGUGGATT against H2-M10.5 is inactive: -0.746.
On to GGAGAAACACUAUUUUGGATT against BC013529, for which the z-score is inactive: 0.894.
The figure for GGAAGUUAGCCCUAAAGUUTT against Uchl1 is inactive: -0.535.
As for GGACACCUACUUGGUAUUGTT against Epor, the z-score is inactive: -1.48.
The figure for “GCGCGUGUGAAAUAAACAUTT against 9130011E15Rik” is inactive: 1.45; for CCAAGAUCUCAGUUGUCUCTT against Mtif2 it is inactive: -0.502.
The value for GGCCGACCUUUCUAUCAAUTT against Rasip1 was inactive: 0.915; that for CGAACUGGUAGAAGUUAUUTT against Galnact2 was inactive: 0.79.
The value for “CCUUAAGCACCAUAAAUUATT against 2510003E04Rik” was inactive: 0.622; that for “CGAAUACGAAAAAAUCGACTT against 1500006O09Rik” was inactive: -0.342; that for GGAAAACAGAAAUGGUUUATT against Slc39a10 was inactive: 0.58.
For GGUGUACAACUCCUAUAGGTT against P2ry13, the z-score is inactive: 1.28.
The value for GCUAGACGGGUGUUUAAGATT against Tiam2 was inactive: -2.14.
The figure for GCUCUUUCCCGACAUUCCCTT against Nans is inactive: -0.348; for “GGCCAGUGAGCAGCAUUAUTT against 6330509G02Rik” it is inactive: 0.489; for GGAGAUUGUGCCAUCCAUGTT against Ccnd1 it is inactive: 0.609.
The value for GGCUACAUAGGAUCCACAATT against Prm2 was inactive: 0.459.
GGAGCUGAGGGAACCUUGUTT against Slc35c1: the z-score is inactive: -1.21.
The value for “CCCAAAAGAUCACAAAGUUTT against E330017E16” was inactive: -0.911; that for GGCUUCUGUGGCAGAUAAGTT against Pspn was inactive: 0.413.
The figure for CGGGAAAUCAUAAAACAGGTT against Chd4 is inactive: -0.81; for “GGUACAUGAAGAAAAGUAATT against 9130022A01Rik” it is inactive: 1.36; for “GGAUUAUGUGUCGUUUGGATT against 4732437J24Rik” it is inactive: 0.0477.
The figure for UAGAAGAUGCAACCUUGCUTT against Adam34 is inactive: -0.354; for GGUUCUUUAAUAGAACAUGTT against Tyrp1 it is inactive: -0.207.
Consider GCACUACACUGAUUUGCUATT against Actr1b, for which the z-score is inactive: -1.11.
The value for UCAACAGGGCUGAUAUCCCTT against Acsl5 was inactive: -0.897; that for GCAUCACUGGAUUGUGGAUTT against Tm9sf2 was inactive: -1.19; that for CCUUGAGCAUAUCUUCUGUTT against Olfr420 was inactive: 0.367.
For the sequence “CGACAUGAGCAACGUAGUCTT against 4933434G05Rik”, the z-score is inactive: -0.327.
The value for GCAACAAGACUCGCAUCAUTT against Cbln4 was inactive: 2.24; that for “GGCAGAAAAACUGUGCAACTT against E430025E21Rik” was inactive: 0.764.
The figure for “GGCCAUCAUGAUUGGCGAUTT against 2310007H09Rik” is inactive: 0.969; for GGACUAUGCUGUCCAGAUCTT against Ntn1 it is inactive: -0.555.
The value for GGUCUUCGGUUUUUUAUACTT against Olfr908 was inactive: -0.417; that for GGUUGACAAUUUUCUCAAGTT against Prl was inactive: 0.758.
On to GGAGUGGCUAUGUUUUCGATT against Hrg, for which the z-score was inactive: 0.883.
The value for GGAAUUAACGUGUUUCUGUTT against Ifrg15 was inactive: 0.702; that for GCUCGGUCUUCAUCCCAAATT against BC016548 was inactive: -0.525; that for GGAGACUACAAAGGAGAGCTT against Igfbp6 was inactive: 1.5.
The figure for GGAAAGGACUAAGUCAGGATT against Mdk is inactive: 1.35.
The value for GCCCAAACUCAUUGAGUUUTT against Cab39l was inactive: -0.304; that for GGAGGAGACAGGCUAUUACTT against Usp25 was inactive: -1.59; that for “CGUGUUAGGUCUUCCUCCUTT against 1700113I22Rik” was inactive: -1.95.
CGAUAAGGAAGAGCGGAUCTT against Epn1: the z-score was inactive: 0.185.
The figure for GGAACAAGAAGAAGAAAAATT against Slco3a1 is inactive: 2.2; for GGUCGAGUUCACGGACUCUTT against Pitx2 it is inactive: -1.8.
The value for “GGGAAAAUGGAAAAUACAUTT against 0610039A15Rik” was inactive: -0.849; that for GGCUACUGUUGCUGCAUUUTT against Lin7c was inactive: -1.24.
The value for GGAAACAAAUGAGUGCCUGTT against Muted was inactive: -1; that for “GCAAGUGACGGUUUAUCUGTT against 5830482G23Rik” was inactive: 1.07; that for CCUUAUCCAAGAGUAGGGCTT against AY534250 was inactive: 1.03.
For GGAGUAAAUAAGGACAUUGTT against Pcdha3, the z-score is inactive: -0.208.
The figure for GCGGAGGUCACGUUUACAUTT against Crebbp is inactive: 2.13; for GCGAUACCAGGGACUACAUTT against AI839920 it is inactive: -0.789.
The figure for GGCAGUGAAUCUCAAAUCCTT against Jam3 is inactive: -0.246; for GGCGAUUCUGGCUCUCUUUTT against Commd9 it is inactive: -1.31.
The value for GGCCUGCCUUUUUAUCUUGTT against Rrs1 was inactive: -0.129; that for “GGAAGAAGGUACAUUUCAGTT against 4933417L02Rik” was inactive: -1.29.
“GGAUAUGGAGAGAGAUUUATT against 1700102P08Rik”: the z-score was inactive: -0.0905.
The value for CGAGGAAUAGAUUUUUUGATT against Twistnb was inactive: -2.66; that for GGUUCAAAACUACACACACTT against Sp9 was inactive: -2.32; that for “GGCAGUGAUGUUUCUCUCGTT against 1110012D08Rik” was inactive: -0.786.
The figure for GAGAGUAAAGAGCCGUUCUTT against Ly6i is inactive: 2.11; for “GGAGGAUGACAAAAUCUAUTT against 2310020H19Rik” it is inactive: 0.284; for GGAAGUUCUAGAAAGGUUGTT against Tapbp it is inactive: 2.01.
The value for GGGAAAUCUCUGUUGGACATT against Akr1c13 was inactive: -0.333.
For the sequence GGCAAACCUUCUCUAAUUUTT against Nif3l1, the z-score was inactive: -1.25.

The values above are taken from PubChem BioAssay AID1347423 (Functional Genomics Laboratory (NCATS/FGL), 2020).
